Results as given in PubChem BioAssay AID624297 (National Center for Advancing Translational Sciences (NCATS), 2012).
The campaign covered roughly 340,000 compounds. About 6,200 (1.8%) were called active. Inconclusive results, whose numbers are uncertain, are shown with a selection of clear calls. Calls follow the shape of the dose curve; as a rule, active = well fitted activation curve with a large enough effect; inconclusive = small, poorly fitted or top-dose-only effect; inactive = no such curve, though single readings can be large or run the other way. Potencies beside an inconclusive call are fits to weak or partial responses and may not hold up.

experiment: A quantitative high throughput screen for small molecules that induce DNA re-replication in SW480 colon adenocarcinoma cells.; also: nearly all actives have a fitted effect of over 55% in size; as to re-replication activation: % of control where 0% means no effect; conditions: Hoechst DNA content imaging, 48 h; re-replication activation: at 46.1 µM (top of the series) unless noted
Method in brief: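 Hoechst fluorescence of nuclei (405 nm excitation, 500-530 nm emission) measured by plate-scanning imager after 48 hr compound exposure at 37 C; re-replication scored as increased number of nuclei with elevated intensity.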
Potency is read from the fitted curve at half-maximal effect.

SMILES | Potency | re-replication activation
O=C(N/N=C/c1cc(Br)ccc1O)C(=O)Nc1ccccc1OC(F)(F)C(F)F | inconclusive: 28.2 µM [activator, single point] | 
CCN(CC)CCn1c2ccc(Cl)cc2c2nc(C)sc21 | inconclusive: 9.2 µM [activator, partial curve] | 
CCCc1cc(=O)[nH]c(SC(C)C(=O)Nc2ccc3c(c2)OCCO3)n1 (configuration not stated) |  | inactive: 8.19%
COc1ccc2ncccc2c1Cc1c(OC)ccc2ncccc12 | inconclusive: 29.1 µM [activator, single point] | 
O=C(Cn1ncc2c1-c1ccccc1OC2)N1CCN(Cc2ccc3c(c2)OCO3)CC1 |  | inactive: -1.63%
COc1ccc(-n2nc(C(=O)NCC(=O)N3CCN(c4ccccc4OC)CC3)c3ccccc3c2=O)c(OC)c1 | inconclusive: 29.1 µM [activator, single point] | 
c1ccc(N2CCN(c3nc(NCc4ccco4)c4ccccc4n3)CC2)cc1 | inconclusive: 23.1 µM [activator, single point] | 
Cc1cccn2c(=O)c(/C=C(\C#N)C(=O)NCc3ccccc3)c(N3CCC(C(N)=O)CC3)nc12 | inconclusive: 2.06 µM [activator, full curve, poor fit] | 
COc1ccc2c(=O)c(Oc3ccc(C(=O)O)cc3)c(C(F)(F)F)oc2c1 |  | inactive: 4.29%
CC(NC(=O)COC(=O)c1ccc([N+](=O)[O-])o1)c1ccccc1 (configuration not stated) | inconclusive: 16.4 µM [activator, partial curve] | 
COc1ccc(NC(=O)CCCn2c(=O)c3sccc3n(Cc3ccccc3)c2=O)cc1 |  | inactive: 7.46%
COc1ccc(Br)cc1C(=O)Nc1cccc(NC(=O)c2ccco2)c1 |  | inactive: -8.87%
CC1CCN(c2nc3nonc3nc2Nc2ccc(F)cc2)CC1 | inconclusive: 23.1 µM [activator, single point] | 
O=C(Nc1cc(Cl)cc(Cl)c1)c1coc(=O)c(Br)c1 | inconclusive: 29.1 µM [activator, single point] | 
O=C(CCN1C(=O)/C(=C/c2ccccc2Cl)SC1=S)NC1C=CS(=O)(=O)C1 (configuration not stated) | inconclusive: 18.4 µM [activator, partial curve, poor fit] | 
CCn1c(N2CCN(C(c3ccccc3)c3ccccc3)CC2)nc2c1c(=O)[nH]c(=O)n2C | inconclusive: 6.51 µM [activator, single point] | 
CCCCCC(=O)Nc1ccc(C(=O)COC(=O)c2ccccn2)cc1 |  | inactive: -21.1%
Cc1cc(C)c2nc(N(CCCN(C)C)C(=O)c3ccc4c(c3)OCCO4)sc2c1 | inconclusive: 1.3 µM [activator, full curve, poor fit] | 
COc1ccc(S(=O)(=O)N2CN(Cc3ccco3)c3nc4ccccc4nc32)cc1 | inconclusive: 29.1 µM [activator, single point] | 
CCc1cccc(NC(=O)C2CCN(S(=O)(=O)c3cccs3)CC2)c1 |  | inactive: 0.004%
O=C(Nc1ccn(Cc2c(F)c(F)c(F)c(F)c2F)n1)c1ccc(COc2ccccc2Cl)cc1 |  | inactive: 0.203%
CCN(CC)S(=O)(=O)c1cccc(NC(=O)COC(=O)c2n[nH]c(=O)c3ccccc23)c1 | inconclusive: 29.1 µM [activator, single point] | 
COc1ccc(NC(=O)CN(C)C(=O)CN2C(=O)NC3(CCCCC3)C2=O)cc1 | inconclusive: 18.4 µM [activator, single point] | 

In the list so far, three have bromine:
SMILES | Potency | re-replication activation
O=C(N/N=C/c1cc(Br)ccc1O)C(=O)Nc1ccccc1OC(F)(F)C(F)F | inconclusive: 28.2 µM [activator, single point] | 
COc1ccc(Br)cc1C(=O)Nc1cccc(NC(=O)c2ccco2)c1 |  | inactive: -8.87%
O=C(Nc1cc(Cl)cc(Cl)c1)c1coc(=O)c(Br)c1 | inconclusive: 29.1 µM [activator, single point] | 

Following part

SMILES | Potency | re-replication activation
Cc1ccc(C(=O)N2CCN(S(=O)(=O)N3CCOCC3)CC2)cc1 | inconclusive: 29.1 µM [activator, single point] | 
COc1ccc(/C=N/NC(=O)c2ccn[nH]2)cc1COc1ccc(Cl)cc1Cl | inconclusive: 29.1 µM [activator, single point] | 
CCOC(=O)c1[nH]c(C(=O)O)c(OC(=O)CC)c1C |  | inactive: 5.79%
COC(=O)c1cc(S(=O)(=O)NCC2CCN(CCc3cccs3)CC2)c[nH]1 | inconclusive: 32.6 µM [activator, partial curve, poor fit] | 
O=C(O)CC(NC(=O)c1ccc2c(c1)OCO2)c1cccc([N+](=O)[O-])c1 (configuration not stated) |  | inactive: -54%
O=[N+]([O-])c1ccc(Cl)c(/C=N/n2c(COc3ccccc3)n[nH]c2=S)c1 | inconclusive: 29.1 µM [activator, single point] | 
CCOC(=O)c1c(NC(=O)CSc2nc(C)cc(C)c2C#N)sc(C(C)=O)c1C | inconclusive: 1.3 µM [activator, full curve, poor fit] | 
CCCc1cc(-c2n[nH]c(C)c2-c2ccc(C(=O)OCC)o2)c(O)cc1O |  | inactive: 0.541%
COc1ccc(C2C(C#N)=C(N)Oc3cc(N)ccc32)cc1OC (configuration not stated) | inconclusive: 29.1 µM [activator, single point] | 
COc1cc2c(cc1/C=C1/NC(=O)N(c3ccccc3)C1=O)OCO2 | inconclusive: 5.8 µM [activator, partial curve, poor fit] | 
COc1ccc(OC(C)=O)c(C2c3cc(OC)c(OC)cc3CCN2C(C)=O)c1 (configuration not stated) | inconclusive: 18.4 µM [activator, single point] | 
Cc1[nH]c2ccccc2c1/C=N/NC(=O)c1cc(-c2ccncc2)nc2ccccc12 | active: 13 µM | 
Cc1ccc(C)c(NC(=O)COC(=O)c2ccc(S(=O)(=O)N3CCCCC3)cc2)c1 |  | inactive: -10.4%
CCOc1cc(C2NC(=O)NC(c3ccccc3)=C2C(=O)c2ccccc2)c(Br)cc1OCC(=O)O (configuration not stated) | inconclusive: 18.4 µM [activator, single point] | 
Cc1ccc(C)c(NC(=O)CC2Oc3ccccc3NC2=O)c1 (configuration not stated) | inconclusive: 0.092 µM [activator, full curve, poor fit] | 
COc1cc(NC(=O)CSCc2ccc(Cl)cc2)c(C(=O)O)cc1OC |  | inactive: -11.6%
CCOC(=O)c1cnc2c(OC)cccc2c1N1CCN(c2ccc(OC)cc2)CC1 |  | inactive: -0.706%
CCCCC |  | inactive: -2.03%
Cc1cc(C)nc(S/C=C/C(=O)c2ccccc2F)n1 |  | inactive: -3.88%
CC(C)Oc1cccc(C(=O)NC(=S)N2CCN(c3ccc(C(F)(F)F)cc3[N+](=O)[O-])CC2)c1 | inconclusive: 20.6 µM [activator, partial curve, poor fit] | 
Cc1ccc(S(=O)(=O)NCc2ccccn2)c(C)c1 | inconclusive: 1.46 µM [activator, partial curve, poor fit] | 
CC(=O)Nc1ccc(N2C(C(C)=O)=NN(c3ccc(Cl)cc3)C2c2sccc2C)cc1 (configuration not stated) | inconclusive: 29.1 µM [activator, single point] | 
Cc1ccc(S(=O)(=O)Nc2nc(C)c(C(=O)NNS(=O)(=O)c3ccccc3)s2)cc1 | inconclusive: 11.6 µM [activator, single point] | 

SMILES | Potency | re-replication activation
CC(=O)c1cc2c(cc1NS(=O)(=O)c1ccc(C)cc1)OCO2 | inconclusive: 35.5 µM [activator, single point] | 
Cc1ccc(NC(=O)CN(c2ccc(Cl)cc2)S(=O)(=O)c2cc([N+](=O)[O-])ccc2Cl)cc1 | inconclusive: 23.1 µM [activator, partial curve, poor fit] | 
COc1ccc2c(c1)CCc1cn3nc(C)cc3nc1-2 | inconclusive: 13 µM [activator, partial curve] | 
CCC(C)(C)C1CCc2[nH]nc(C(=O)NCc3ccc(OC)cc3)c2C1 (configuration not stated) |  | inactive: -4.19%
Cc1ccnc2nc(C(=O)OCC(=O)N3CC(C)CC(C)C3)nn12 (configuration not stated) |  | inactive: 5.77%
COc1ccc(NC(=O)c2cc3n(n2)C(C(F)(F)F)CC(c2ccc4c(c2)OCO4)N3)cc1OC (configuration not stated) | inconclusive: 29.1 µM [activator, partial curve, poor fit] | 
C=CCN(C(=O)c1ccc2c(c1)nnn2C)c1ccccc1 |  | inactive: -24.7%
CN(C(=O)CSc1nnc(-c2ccc(F)cc2)c2ccccc12)C1CCS(=O)(=O)C1 (configuration not stated) | inconclusive: 23.1 µM [activator, single point] | 
CC1(C)NC(=O)N(CC(O)COc2ccc(-c3ccc(C#N)cc3)cc2)C1=O (configuration not stated) |  | inactive: -10%
CCn1cc(CN2CCc3c([nH]c4ccccc34)C2c2cccc(OC)c2)c(C)n1 (configuration not stated) |  | inactive: -0.121%
COc1ccc(C2C(C)C3(O)CC(C#N)(C(=O)N3)C2(C#N)C#N)cc1 (configuration not stated) | inconclusive: 29.1 µM [activator, single point] | 
CC(NC(=O)c1ccc(C(=O)c2ccccc2)cc1)c1ccc(S(N)(=O)=O)cc1 (configuration not stated) | inconclusive: 4.61 µM [activator, single point] | 
C[C@@H](C(=O)Nc1ccc2ccccc2c1)[C@H]1C[C@]1(C)[C@H](NC(=O)c1cnccn1)c1ccccc1 | inconclusive: 16.4 µM [activator, partial curve] | 
Cc1ccc(C(=O)Oc2coc(CSc3nnc(NC(=O)C4CC4)s3)cc2=O)cc1C | inconclusive: 0.146 µM [activator, full curve, poor fit] | 
COc1ccc2cc(CN(Cc3ccco3)Cc3nnnn3C3CCCCC3)c(=O)[nH]c2c1 | inconclusive: 29.1 µM [activator, single point] | 
CCc1nnc2cccc(Cl)n12 |  | inactive: -112%
COc1cc2c(cc1OC)CN(C(=O)CCOc1ccccc1)CC2 | inconclusive: 20.6 µM [activator, single point] | 
Cc1ccc(NC(=O)C(=Cc2ccc(C(=O)O)cc2)C(=O)Nc2ccc(C)cc2C)c(C)c1 | active: 18.4 µM | 
COc1cccc2cc(C(=O)NCc3ccc(Cl)cc3)c(=N)oc12 |  | inactive: 9.28%
Cc1cc(C(=O)Nc2ccc(N3CCCC3)c(Cl)c2)ccc1[N+](=O)[O-] | inconclusive: 23.1 µM [activator, single point] | 
Cc1oc(-c2ccccc2)nc1CS(=O)CC(=O)NC1CCCCCC1 (configuration not stated) |  | inactive: 9.85%
